Each number is a percent effect as filed. The controls that fix the scale are not given in the record; negative values are as filed. The compounds are a random part of those screened. A dash means the value is not listed here; it may have been measured.

By UniProt entry, the sequences of proteins in these tests, tags left out. Residues count along the entry.
UniProt Q4DA54, 1-478: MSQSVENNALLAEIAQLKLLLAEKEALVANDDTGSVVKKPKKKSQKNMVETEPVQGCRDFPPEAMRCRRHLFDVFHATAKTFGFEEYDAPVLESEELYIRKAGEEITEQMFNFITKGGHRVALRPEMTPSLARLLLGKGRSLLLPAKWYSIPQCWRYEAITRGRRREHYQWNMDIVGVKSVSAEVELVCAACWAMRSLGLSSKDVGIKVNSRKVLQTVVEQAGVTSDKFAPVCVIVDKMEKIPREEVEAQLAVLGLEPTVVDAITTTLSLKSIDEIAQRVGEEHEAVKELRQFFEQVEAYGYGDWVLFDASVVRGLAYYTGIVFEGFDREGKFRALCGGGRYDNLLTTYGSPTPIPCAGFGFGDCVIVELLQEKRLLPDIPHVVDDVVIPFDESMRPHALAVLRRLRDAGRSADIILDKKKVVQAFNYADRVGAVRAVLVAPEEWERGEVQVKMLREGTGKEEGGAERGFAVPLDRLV

Toxoplasma: 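Assay of Toxoplasma gondii numbers, read through their beta-galactosidase reporter with a colour substrate. Tested at 10 µM. The record gives no direction; the compounds picked for IC50 retests had high values, so higher reads as fewer parasites. Of about 67,000 compounds tested this way, about 260 (0.38%) reached 50% or more in at least one test.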
TcHisRS: 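Enzyme assay of histidyl-tRNA synthetase; the read-out is not stated. Target: Histidine-tRNA ligase, Trypanosoma cruzi CL Brener (UniProt Q4DA54). Compounds at 30 µM. Direction is inferred from retests: higher values go with stronger inhibition. Of about 69,000 compounds tested this way, about 31 (0.045%) reached 50% or more in at least one test.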

| # | structure | Toxoplasma | TcHisRS |
|---|---|---|---|
| 1 | `[H][C@]12C[C@H](NC(=O)c3ccccn3)[C@@]1([H])CN(S(=O)(=O)c1ccc(C)cc1)C2` | 7.036% | - |
| 2 | `COCC1CN(S(=O)(=O)c2ccccc2)Cc2ncnn2C1` (configuration not stated) | -9.545% | 4.124% |
| 3 | `Cc1nnc(SCC(=O)c2cc3c(cc2Cl)NC(=O)C3)o1` | -4.777% | 2.439% |
| 4 | `CCc1c(C)nc2ccccc2c1N1CCC(NC(C)=O)CC1` | 12.33% | -2.89% |
| 5 | `O=C(NCCCn1nc2ccccn2c1=O)NC(C1CC1)C1CC1` | -15.26% | 7.317% |
| 6 | `Cn1ccc(C(=O)N2C[C@@H]3CN(CC4CC4)CCO[C@@H]3C2)n1` | - | 2.941% |
| 7 | `Cc1noc(C)c1CN1CCN(Cc2ccncc2)c2ncccc2C1` | - | 8.197% |
| 8 | `Cc1c[nH]c(CN(C)C(C(=O)O)c2c(F)cccc2OC(C)C)n1` (configuration not stated) | 4.883% | 6.627% |
| 9 | `Cc1cc(C2CCCN2CCC(=O)N2CCc3sccc3C2)no1` (configuration not stated) | 6.12% | 11.34% |
| 10 | `CN(C)C(=O)N1CCC(C(=O)NCCNc2ncccc2C#N)CC1` | 0% | -3.448% |
| 11 | `CCc1cc(N2CCN(C(C)=O)CC2)n2nc(C)c(C)c2n1` | -10.91% | 5.682% |
| 12 | `O=C(c1ccncc1)N1CCC(Cc2cnc3[nH]ccc3c2)CC1` | 6.12% | 11.11% |
| 13 | `COc1c(CNC2CCc3cc(F)ccc32)c(C)nn1C.Cl` (configuration not stated) | 5.117% | - |
| 14 | `CCC(CO)N(Cc1ccccn1)C(=O)c1ccc(=O)[nH]c1` (configuration not stated) | 4.357% | 7.821% |
| 15 | `Cc1ccc(S(N)(=O)=O)cc1C(=O)NC1CCCC1` | 0.2499% | 12% |
| 16 | `O=C(CN1CCc2sccc2C1)Nc1ccnc2ccnn12` | 39.76% | 9.135% |
| 17 | `O=C(Nc1ccc(F)cc1)N1CCC(CO)(Nc2ccccc2)CC1` | 27.74% | 11.34% |
| 18 | `COc1c(CNCc2cccc(CN(C)C)c2)c(C)nn1C` | - | 1.504% |
| 19 | `COc1ccccc1CN1C(=O)O[C@@H]2CN(c3ccccn3)C[C@@H]21` | - | 12.5% |
| 20 | `Cc1c(Br)cccc1C(=O)NCC1CCCNC1.Cl` (configuration not stated) | -3.071% | - |
| 21 | `CCOCC(=O)N1C[C@@H](O)[C@H](NC(C)=O)C1` | -1.615% | 10.9% |
| 22 | `CCc1cc(O)nc(C2CCCN2C(=O)c2cc(C)no2)n1` (configuration not stated) | -4.155% | 2.151% |
| 23 | `COc1nc(N2CCN(C(C)=O)CC2)ncc1Br` | 8.691% | 4.902% |
| 24 | `CCOC(=O)CNC(=O)c1cc2n(n1)CCCO2` | 3.832% | 3.636% |
| 25 | `O=C(NS(=O)(=O)c1cnn(-c2ccccc2F)c1)c1ccoc1` | 12.82% | 3.665% |
| 26 | `CC(C)N(Cc1nc2c(cnn2C)c(=O)[nH]1)c1ccccc1` | -14.21% | -1.527% |
| 27 | `CCn1nc(C)c(CNC(=O)NCC(C)(O)c2ccccc2)c1C` (configuration not stated) | 3.426% | -0.4926% |
| 28 | `Fc1ccccc1Oc1nccnc1C1CCCN(C2CCOCC2)C1` (configuration not stated) | -2.042% | 4.651% |
| 29 | `CCC(NC(=O)c1cccc(N2CCCC2=O)c1)c1ccc(OC)cc1` (configuration not stated) | -8.88% | 7.263% |
| 30 | `COc1ncccc1CNC(=O)c1cnc(C)cn1` | -10.88% | 2.053% |
| 31 | `Cc1ccsc1CN(C)c1cc(N2CCOCC2)ncn1` | 3.631% | 4.712% |
| 32 | `N#Cc1ccc(NCc2cccnc2N2CCC(C(N)=O)CC2)cn1` | -11.29% | 6.667% |
| 33 | `Cn1c(CN2CCCCC2)nnc1C1CCN(c2nccc(N)n2)CC1` | -9.361% | 5.946% |
| 34 | `COc1cccc(-c2n[nH]cc2CNC2CCC(O)CC2)c1` (configuration not stated) | - | -1.754% |
| 35 | `[H][C@]12CC[C@]([H])(CN(Cc3nnc(C4CC4)o3)C1)N(Cc1ccccc1)C2` | -10.68% | - |
| 36 | `Cc1noc(-c2cccnc2N2CCOC(C)(c3cnn(C)c3)C2)n1` (configuration not stated) | 2.727% | 5.172% |
| 37 | `[H][C@]12CN(c3nccs3)CC[C@@]1(O)CCN(S(=O)(=O)N(C)C)C2` | -14.21% | - |
| 38 | `CC1(C)[C@H](Cc2cc(CN3CCCCC3)on2)C[C@@H]1NS(C)(=O)=O` | -3.571% | 7.463% |
| 39 | `Cc1cc2[nH]c(CN3CCOC(C(F)(F)F)C3)cc(=O)n2n1` (configuration not stated) | 0.2647% | 4.762% |
| 40 | `CN1CCN(C(=O)c2occc2CN2C(=O)Cc3ccccc32)CC1` | 2.128% | 8.19% |
| 41 | `CO[C@@H]1CCN(Cc2cccs2)[C@@H]2CN(Cc3ccncc3)C[C@@H]21` | - | 6.667% |
| 42 | `CC(C)(C)N1CC(C(=O)NCc2noc(Cc3ccccc3)n2)CC1=O` (configuration not stated) | 2.53% | 0% |
| 43 | `O=C(OCCF)c1cccc(C(=O)N2CCCC2)n1` | 1.839% | 2.041% |
| 44 | `COc1cccc(CN2CCC3(CCN(c4ncc(C)cn4)CC3)C2)c1.O=C(O)C(F)(F)F` | 8.063% | - |
| 45 | `CCS(=O)(=O)CC(C)NC(=O)N(C)Cc1cc(Cl)cn1C` (configuration not stated) | 6.924% | 0% |
| 46 | `CS(=O)(=O)N1CCOCC2(CN(Cc3ccco3)CCO2)C1.O=C(O)C(F)(F)F` (configuration not stated) | 13.36% | - |
| 47 | `CC(C)c1nccn1CC(=O)Nc1ccnn1C(C)C(C)C` (configuration not stated) | - | 4.95% |
| 48 | `Cc1nn(C)c(N2CCOCC2)c1CNCc1ccccc1CO` | 8.49% | 7.872% |
| 49 | `CC(C)Cn1cncc1Cn1cccc(C(F)(F)F)c1=O` | 5.352% | 0% |
| 50 | `Clc1ccc2cccnc2c1CN1CCCC(Cn2cncn2)C1` (configuration not stated) | 7.324% | -0.3831% |

5 of the entries, repeated:

| structure | Toxoplasma | TcHisRS |
|---|---|---|
| `CCS(=O)(=O)CC(C)NC(=O)N(C)Cc1cc(Cl)cn1C` (configuration not stated) | 6.924% | 0% |
| `CCOC(=O)CNC(=O)c1cc2n(n1)CCCO2` | 3.832% | 3.636% |
| `Clc1ccc2cccnc2c1CN1CCCC(Cn2cncn2)C1` (configuration not stated) | 7.324% | -0.3831% |
| `Cc1nn(C)c(N2CCOCC2)c1CNCc1ccccc1CO` | 8.49% | 7.872% |
| `CN1CCN(C(=O)c2occc2CN2C(=O)Cc3ccccc32)CC1` | 2.128% | 8.19% |

From ChEMBL document CHEMBL3988442, “University of Dundee, Small-Polar-MMV Screening Library” (2021).